From paper doi:10.1101/336305
These are yes or no findings as the source states them, for the method shown. Binding seen in cells or lysates may run through a third protein. Some binding calls cover weakened binding; strength is not graded here.

Target: T1, Ptf1a (mouse (endogenous in 266-6)) (UniProt Q9QX98)
T1 sequence: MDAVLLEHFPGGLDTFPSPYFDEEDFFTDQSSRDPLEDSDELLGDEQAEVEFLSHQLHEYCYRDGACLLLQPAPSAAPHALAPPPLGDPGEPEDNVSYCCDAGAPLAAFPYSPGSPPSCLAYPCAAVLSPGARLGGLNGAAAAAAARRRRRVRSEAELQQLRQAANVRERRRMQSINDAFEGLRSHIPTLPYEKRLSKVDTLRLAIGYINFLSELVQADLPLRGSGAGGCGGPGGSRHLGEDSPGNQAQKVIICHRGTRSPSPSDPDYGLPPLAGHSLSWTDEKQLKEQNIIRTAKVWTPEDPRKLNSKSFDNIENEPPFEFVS
Assay: co-IP

B1: Hes1 (protein, UniProt P35428 1-282)
chain: MPADIMEKNSSSPVAATPASVNTTPDKPKTASEHRKSSKPIMEKRRRARINESLSQLKTLILDALKKDSSRHSKLEKADILEMTVKHLRNLQRAQMTAALSTDPSVLGKYRAGFSECMNEVTRFLSTCEGVNTEVRTRLLGHLANCMTQINAMTYPGQAHPALQAPPPPPPSGPAGPQHAPFAPPPPPLVPIPGGAAPPPGSAPCKLGSQAGEAAKVFGGFQVVPAPDGQFAFLIPNGAFAHSGPVIPVYTSNSGTSVGPNAVSPSSGSSLTSDSMWRPWRN
binding: binds
